Laboratory results published in US12729225B2, “Non-canonical SWI/SNF complex and uses thereof” (Dana-Farber Cancer Institute, Inc., priority 2018, dated 2026).

System: mSWI/SNF complexes
Test: mSWI/SNF complex purification with HA-tagged baits and mass spectrometry (peptide counts)
Design: species or system human
Settings: 293_HA-BRD7 bait purification, mass spectrometry; for Total: total peptide count per identified protein; for Unique: unique peptide count per identified protein

| Molecule | Total | Unique |
| --- | --- | --- |
| FIGNL1 (protein, UniProt Q6PIW4 1-674, looked up) Fidgetin-like protein 1: MQTSSSRSVHLSEWQKNYFAITSGICTGPKADAYRAQILRIQYAWANSEISQVCATKLFKKYAEKYSAIIDSDNVESGLNNYAENILTLAGSQQTDSDKWQSGLSINNVFKMSSVQKMMQAGKKFKDSLLEPALASVVIHKEATVFDLPKFSVCGSSQESDSLPNSAHDRDRTQDFPESNRLKLLQNAQPPMVTNTARTCPTFSAPVGESATAKFHVTPLFGNVKKENHSSAKENIGLNVFLSNQSCFPAACENPQRKSFYGSGTIDALSNPILNKACSKTEDNGPKEDSSLPTFKTAKEQLWVDQQKKYHQPQRASGSSYGGVKKSLGASRSRGILGKFVPPIPKQDGGEQNGGMQCKPYGAGPTEPAHPVDERLKNLEPKMIELIMNEIMDHGPPVNWEDIAGVEFAKATIKEIVVWPMLRPDIFTGLRGPPKGILLFGPPGTGKTLIGKCIASQSGATFFSISASSLTSKWVGEGEKMVRALFAVARCQQPAVIFIDEIDSLLSQRGDGEHESSRRIKTEFLVQLDGATTSSEDRILVVGATNRPQEIDEAARRRLVKRLYIPLPEASARKQIVINLMSKEQCCLSEEEIEQIVQQSDAFSGADMTQLCREASLGPIRSLQTADIATITPDQVRPIAYIDFENAFRTVRPSVSPKDLELYENWNKTFGCGK | 1 | 1 |
| SNX9 (protein, UniProt Q9Y5X1 1-595, looked up) Sorting nexin-9: MATKARVMYDFAAEPGNNELTVNEGEIITITNPDVGGGWLEGRNIKGERGLVPTDYVEILPSDGKDQFSCGNSVADQAFLDSLSASTAQASSSAASNNHQVGSGNDPWSAWSASKSGNWESSEGWGAQPEGAGAQRNTNTPNNWDTAFGHPQAYQGPATGDDDDWDEDWDGPKSSSYFKDSESADAGGAQRGNSRASSSSMKIPLNKFPGFAKPGTEQYLLAKQLAKPKEKIPIIVGDYGPMWVYPTSTFDCVVADPRKGSKMYGLKSYIEYQLTPTNTNRSVNHRYKHFDWLYERLLVKFGSAIPIPSLPDKQVTGRFEEEFIKMRMERLQAWMTRMCRHPVISESEVFQQFLNFRDEKEWKTGKRKAERDELAGVMIFSTMEPEAPDLDLVEIEQKCEAVGKFTKAMDDGVKELLTVGQEHWKRCTGPLPKEYQKIGKALQSLATVFSSSGYQGETDLNDAITEAGKTYEEIASLVAEQPKKDLHFLMECNHEYKGFLGCFPDIIGTHKGAIEKVKESDKLVATSKITLQDKQNMVKRVSIMSYALQAEMNHFHSNRIYDYNSVIRLYLEQQVQFYETIAEKLRQALSRFPVM | 1 | 1 |
| ILF3 (protein, UniProt Q12906 1-894, looked up) Interleukin enhancer-binding …: MRPMRIFVNDDRHVMAKHSSVYPTQEELEAVQNMVSHTERALKAVSDWIDEQEKGSSEQAESDNMDVPPEDDSKEGAGEQKTEHMTRTLRGVMRVGLVAKGLLLKGDLDLELVLLCKEKPTTALLDKVADNLAIQLAAVTEDKYEILQSVDDAAIVIKNTKEPPLSLTIHLTSPVVREEMEKVLAGETLSVNDPPDVLDRQKCLAALASLRHAKWFQARANGLKSCVIVIRVLRDLCTRVPTWGPLRGWPLELLCEKSIGTANRPMGAGEALRRVLECLASGIVMPDGSGIYDPCEKEATDAIGHLDRQQREDITQSAQHALRLAAFGQLHKVLGMDPLPSKMPKKPKNENPVDYTVQIPPSTTYAITPMKRPMEEDGEEKSPSKKKKKIQKKEEKAEPPQAMNALMRLNQLKPGLQYKLVSQTGPVHAPIFTMSVEVDGNSFEASGPSKKTAKLHVAVKVLQDMGLPTGAEGRDSSKGEDSAEETEAKPAVVAPAPVVEAVSTPSAAFPSDATAEQGPILTKHGKNPVMELNEKRRGLKYELISETGGSHDKRFVMEVEVDGQKFQGAGSNKKVAKAYAALAALEKLFPDTPLALDANKKKRAPVPVRGGPKFAAKPHNPGFGMGGPMHNEVPPPPNLRGRGRGGSIRGRGRGRGFGGANHGGYMNAGAGYGSYGYGGNSATAGYSQFYSNGGHSGNASGGGGGGGGGSSGYGSYYQGDNYNSPVPPKHAGKKQPHGGQQKPSYGSGYQSHQGQQQSYNQSPYSNYGPPQGKQKGYNHGQGSYSYSNSYNSPGGGGGSDYNYESKFNYSGSGGRSGGNSYGSGGASYNPGSHGGYGGGSGGGSSYQGKQGGYSQSNYNSPGSGQNYSGPPSSYQSSQGGYGRNADHSMNYQYR | 1 | 1 |
| HNRNPR (protein, UniProt O43390 2-633, looked up) Heterogeneous nuclear …: ANQVNGNAVQLKEEEEPMDTSSVTHTEHYKTLIEAGLPQKVAERLDEIFQTGLVAYVDLDERAIDALREFNEEGALSVLQQFKESDLSHVQNKSAFLCGVMKTYRQREKQGSKVQESTKGPDEAKIKALLERTGYTLDVTTGQRKYGGPPPDSVYSGVQPGIGTEVFVGKIPRDLYEDELVPLFEKAGPIWDLRLMMDPLSGQNRGYAFITFCGKEAAQEAVKLCDSYEIRPGKHLGVCISVANNRLFVGSIPKNKTKENILEEFSKVTEGLVDVILYHQPDDKKKNRGFCFLEYEDHKSAAQARRRLMSGKVKVWGNVVTVEWADPVEEPDPEVMAKVKVLFVRNLATTVTEEILEKSFSEFGKLERVKKLKDYAFVHFEDRGAAVKAMDEMNGKEIEGEEIEIVLAKPPDKKRKERQAARQASRSTAYEDYYYHPPPRMPPPIRGRGRGGGRGGYGYPPDYYGYEDYYDDYYGYDYHDYRGGYEDPYYGYDDGYAVRGRGGGRGGRGAPPPPRGRGAPPPRGRAGYSQRGAPLGPPRGSRGGRGGPAQQQRGRGSRGSRGNRGGNVGGKRKADGYNQPDSKRRQTNNQQNWGSQPIAQQPLQQGGDYSGNYGYNNDNQEFYQDTYGQQWK | 1 | 1 |
| LEPRE1 (protein, UniProt Q32P28 23-736, looked up) Prolyl 3-hydroxylase 1: EVESEAGWGMVTPDLLFAEGTAAYARGDWPGVVLSMERALRSRAALRALRLRCRTQCAADFPWELDPDWSPSPAQASGAAALRDLSFFGGLLRRAACLRRCLGPPAAHSLSEEMELEFRKRSPYNYLQVAYFKINKLEKAVAAAHTFFVGNPEHMEMQQNLDYYQTMSGVKEADFKDLETQPHMQEFRLGVRLYSEEQPQEAVPHLEAALQEYFVAYEECRALCEGPYDYDGYNYLEYNADLFQAITDHYIQVLNCKQNCVTELASHPSREKPFEDFLPSHYNYLQFAYYNIGNYTQAVECAKTYLLFFPNDEVMNQNLAYYAAMLGEEHTRSIGPRESAKEYRQRSLLEKELLFFAYDVFGIPFVDPDSWTPEEVIPKRLQEKQKSERETAVRISQEIGNLMKEIETLVEEKTKESLDVSRLTREGGPLLYEGISLTMNSKLLNGSQRVVMDGVISDHECQELQRLTNVAATSGDGYRGQTSPHTPNEKFYGVTVFKALKLGQEGKVPLQSAHLYYNVTEKVRRIMESYFRLDTPLYFSYSHLVCRTAIEEVQAERKDDSHPVHVDNCILNAETLVCVKEPPAYTFRDYSAILYLNGDFDGGNFYFTELDAKTVTAEVQPQCGRAVGFSSGTENPHGVKAVTRGQRCAIALWFTLDPRHSERDRVQADDLVKMLFSPEEMDLSQEQPLDAQQGPPEPAQESLSGSESKPKDEL | 1 | 1 |
| PRDX6 (protein, UniProt P30041 2-224, looked up) Peroxiredoxin-6: PGGLLLGDVAPNFEANTTVGRIRFHDFLGDSWGILFSHPRDFTPVCTTELGRAAKLAPEFAKRNVKLIALSIDSVEDHLAWSKDINAYNCEEPTEKLPFPIIDDRNRELAILLGMLDPAEKDEKGMPVTARVVFVFGPDKKLKLSILYPATTGRNFDEILRVVISLQLTAEKRVATPVDWKDGDSVMVLPTIPEEEAKKLFPKGVFTKELPSGKKYLRYTPQP | 1 | 1 |
